In patent US20260200999A1, “SYNTHETIC TRANSCRIPTION FACTORS” (ETH ZURICH, priority 2022, published 2026) one finds intracellular localization data, which are given here for four molecules.

The labels stand for the following.
B1: Flag-tagged MTF: MTF with C-terminal Flag tag (protein)
chain: MFGVKCHNTDSEPLKNEDLLKNLLTMGVDIDMARKRQPGVFHRMITNEQDLKMFLLSKGASKEVIASIISRYPRAITRTPENLSKRWDLWRKIVTSDLEIVNILERSPESFFRSNNNLNLENNIKFLYSVGLTRKCLCRLLTNAPRTFSNSLDLNKQMVEFLQAAGLSLGHNDPADFVRKIIFKNPFILIQSTKRVKANIEFLRSTFNLNSEELLVLICGPGAEILDLSNDYARRSYANIKEKLFSLGCTEEEVQKFVLSYPDVIFLAEKKFNDKIDCLMEENISISQIIENPRVLDSSISTLKSRIKELVNAGCNLSTLNITLLSWSKKRYEAKLKKLSRFAQAGEGTLSEALLQLQFDDEDLGALLGNSTDPAVFTDLASVDNSEFQQLLNQGIPVAPHTTEPMLMEYPEAITRLVTGAQRPPDPAPAPLGAPGLPNGLLSGDEDFSSIADMDFSALLSQISSDYKDHDGDYKDHDIDYKDDDDK
modifications: C-terminal Flag tag
B2: WT MTERF1: human MTERF1, Uniprot Q99551, including the mitochondrial transfer peptide (protein, listed as Homo sapiens)
chain: MQSLSLGQTSISKGLNYLTIMAPGNLWHMRNNFLFGSRCWMTRFSAENIFKSVSFRLFGVKCHNTDSEPLKNEDLLKNLLTMGVDIDMARKRQPGVFHRMITNEQDLKMFLLSKGASKEVIASIISRYPRAITRTPENLSKRWDLWRKIVTSDLEIVNILERSPESFFRSNNNLNLENNIKFLYSVGLTRKCLCRLLTNAPRTFSNSLDLNKQMVEFLQAAGLSLGHNDPADFVRKIIFKNPFILIQSTKRVKANIEFLRSTFNLNSEELLVLICGPGAEILDLSNDYARRSYANIKEKLFSLGCTEEEVQKFVLSYPDVIFLAEKKFNDKIDCLMEENISISQIIENPRVLDSSISTLKSRIKELVNAGCNLSTLNITLLSWSKKRYEAKLKKLSRFA
B3: Flag-tagged wild-type MTERF1: wild-type human MTERF1 with Flag tag (protein)
chain: MQSLSLGQTSISKGLNYLTIMAPGNLWHMRNNFLFGSRCWMTRFSAENIFKSVSFRLFGVKCHNTDSEPLKNEDLLKNLLTMGVDIDMARKRQPGVFHRMITNEQDLKMFLLSKGASKEVIASIISRYPRAITRTPENLSKRWDLWRKIVTSDLEIVNILERSPESFFRSNNNLNLENNIKFLYSVGLTRKCLCRLLTNAPRTFSNSLDLNKQMVEFLQAAGLSLGHNDPADFVRKIIFKNPFILIQSTKRVKANIEFLRSTFNLNSEELLVLICGPGAEILDLSNDYARRSYANIKEKLFSLGCTEEEVQKFVLSYPDVIFLAEKKFNDKIDCLMEENISISQIIENPRVLDSSISTLKSRIKELVNAGCNLSTLNITLLSWSKKRYEAKLKKLSRFADYKDHDGDYKDHDIDYKDDDDK
modifications: Flag tag
B4: MTF: fusion of human MTERF1 amino acids 58-399 to RELA amino acids 430-551; prototype HumTAP synthetic transcription factor (protein)
chain: MFGVKCHNTDSEPLKNEDLLKNLLTMGVDIDMARKRQPGVFHRMITNEQDLKMFLLSKGASKEVIASIISRYPRAITRTPENLSKRWDLWRKIVTSDLEIVNILERSPESFFRSNNNLNLENNIKFLYSVGLTRKCLCRLLTNAPRTFSNSLDLNKQMVEFLQAAGLSLGHNDPADFVRKIIFKNPFILIQSTKRVKANIEFLRSTFNLNSEELLVLICGPGAEILDLSNDYARRSYANIKEKLFSLGCTEEEVQKFVLSYPDVIFLAEKKFNDKIDCLMEENISISQIIENPRVLDSSISTLKSRIKELVNAGCNLSTLNITLLSWSKKRYEAKLKKLSRFAQAGEGTLSEALLQLQFDDEDLGALLGNSTDPAVFTDLASVDNSEFQQLLNQGIPVAPHTTEPMLMEYPEAITRLVTGAQRPPDPAPAPLGAPGLPNGLLSGDEDFSSIADMDFSALLSQISS

The subject of the data set is Hela cells. The experiment in a line: Intracellular localization by anti-Flag confocal microscopy. The format is cell-based, human. To be noted: transfected Hela cells, anti-Flag-tag antibody.
On to B1, for which the intracellular localization entry is listed as “distributed throughout the whole cell, including the nucleus, without obvious localization to the mitochondria”.

Turning to B2, the intracellular localization entry was “localized only to the mitochondria”.

Take B3: the intracellular localization result is “confined to mitochondria”.

On to B4, for which the intracellular localization result was “diffused within a cell, including the nucleus”.
